Source: PubChem BioAssay
This list was built around the results that the source calls inconclusive (neither active nor inactive); the mix of calls is not that of the screen. Where the call is inconclusive, the potency comes from a doubtful curve fit. Active and inactive are the calls of the source. Unless noted, cut-off not given; nearly all actives show AC50 up to about 37 µM.

Assay: growth inhibition of DIPG glioma cells, dose response, cell-based, SU-DIPG-XVII, MIPE5.0, CellTiter-Glo, qHTS (AID 1347060; cut-off not given, nearly all actives have AC50 up to about 26 µM;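 on AC50: cells exposed to compound for 48 hours before viability readout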)
Settings: SU-DIPG-XVII viability, CellTiter-Glo ATP luminescence
In the case of CCOC(=O)Nc1ccc(NCc2ccc(F)cc2)cc1N, the AC50 was inconclusive: 0.00209 µM.
For CCNC(=O)C[C@@H]1N=C(c2ccc(Cl)cc2)c2cc(OC)ccc2-n2c(C)nnc21, the AC50 was inconclusive: 0.00118 µM.
In the case of Cn1c(CCCC(=O)O)nc2cc(N(CCCl)CCCl)ccc21, the AC50 was active: 20.9 µM.
In the case of O=P1(N(CCCl)CCCl)NCCCO1 (stereo not drawn), the outcome was “inactive”.
For Cc1c(C(=O)Nc2cccc(C(F)(F)F)c2)cc(-c2ccccc2)n1CCCN1CCOCC1, the AC50 was inconclusive: 26.3 µM [cytotoxic].
For Cc1cccc(C)c1NC(=O)CN1CCCC1=O, the AC50 was inconclusive: 0.0934 µM [cytotoxic].
In the case of Cc1sc2c(c1C)C(c1ccc(Cl)cc1)=N[C@@H](CC(=O)OC(C)(C)C)c1nnc(C)n1-2, the AC50 was inconclusive: 10.5 µM [cytotoxic].
For O=C(N[C@@H](COc1ccc2[nH]c(=O)[nH]c2c1)c1ccccc1)c1cccn(Cc2ccc(F)c(F)c2)c1=O, the AC50 was inconclusive: 16.6 µM [cytotoxic].
In the case of CCN(CC)C(=O)c1ccc(C2=CC3(CCNCC3)Oc3cccc(O)c32)cc1, the AC50 was inconclusive: 0.0934 µM [cytotoxic].
In the case of CN(C)CCN(C)CCc1ccc(Cl)c(Cl)c1, the outcome was “inactive”.
For C=C[C@H]1CN2CCC1C[C@@H]2[C@@H](O)c1ccnc2ccccc12 (stereo partly drawn), the outcome was “inactive”.
With O=c1cccc2n1CC1CNC[C@H]2C1 the outcome was “inactive”.
In the case of COc1ccc(C(=O)c2c(C)n(CCN3CCOCC3)c3cc(I)ccc23)cc1, the AC50 was inconclusive: 23.5 µM [cytotoxic].
With O=C(O)C(=O)c1cn(Cc2ccccc2)c2ccc(-c3ccc(OC(F)(F)F)cc3)cc12 the outcome was “inactive”.
In the case of COC[C@H]1OC(=O)c2coc3c2[C@@]1(C)C1=C(C3=O)[C@@H]2CC[C@H](O)[C@@]2(C)C[C@H]1OC(C)=O, the AC50 was inconclusive: 3.32 µM [cytotoxic].
With Cn1cc(C2=C(c3cn(C4CCN(Cc5ccccn5)CC4)c4ccccc34)C(=O)NC2=O)c2ccccc21 the AC50 was inconclusive: 37.2 µM [cytotoxic].
With COC1(CS(=O)c2ccccc2)CCN(CCc2c[nH]c3ccc(F)cc23)CC1 (stereo not drawn) the AC50 was inconclusive: 37.2 µM [cytotoxic].
For C[C@@H]1CC[C@H]2[C@@H](C)C(=O)O[C@@H]3O[C@@]4(C)CC[C@@H]1[C@]32OO4, the outcome was “inactive”.
With CO/C1=C/C(C)=C\[C@@H](C)[C@@H](O)[C@@H](C)C/C(C)=C\C=C/[C@H](OC)[C@@H]([C@@H](C)[C@@H](O)[C@H](C)[C@@]2(O)C[C@@H](O)[C@H](C)[C@@H](C(C)C)O2)OC1=O the AC50 was inconclusive: 6.98 µM [cytotoxic].
In the case of CCCCCC[C@H]1C(=O)O[C@H](C)[C@H](NC(=O)c2cccc(NC=O)c2O)C(=O)O[C@@H](C)[C@@H]1OC(=O)CC(C)C, the AC50 was inconclusive: 9.34 µM [cytotoxic].
For CC(C)CC(N(C)C)C1(c2ccc(Cl)cc2)CCC1 (stereo not drawn), the outcome was “inactive”.
For CC(C)[C@]12O[C@H]1[C@@H]1O[C@]13[C@]1(O[C@H]1C[C@H]1C4=C(CC[C@@]13C)C(=O)OC4)[C@@H]2O, the AC50 was active: 0.186 µM.
For CC(O)(CS(=O)(=O)c1ccc(F)cc1)C(=O)Nc1ccc(C#N)c(C(F)(F)F)c1 (stereo not drawn), the AC50 was inconclusive: 37.2 µM [cytotoxic].
For CN1[C@@H]2CC(O)C[C@H]1[C@@H]1O[C@@H]12 (stereo partly drawn), the outcome was “inactive”.
For CO[C@H]1CCC(O[C@H]2C[C@H]([C@]3(C)CC[C@]4(C[C@H](O)[C@@H](C)[C@@H]([C@@H](C)/C=C(\C)C(=O)[C@H](C)C[C@H](C)C(=O)O)O4)O3)O[C@]3(O[C@@H]([C@H]4O[C@@](O)(CO)[C@H](C)C[C@@H]4C)C[C@@H]3C)[C@@H]2C)O[C@@H]1C (stereo partly drawn), the AC50 was inconclusive: 0.417 µM [cytotoxic].
With C[C@@]12OC(=O)[C@]1([C@@H](O)[C@@H]1C=CCCC1)NC(=O)[C@@H]2CCCl the AC50 was inconclusive: 0.0332 µM [cytotoxic].
With C[C@](O)(COc1ccc(C#N)cc1)C(=O)Nc1ccc(C#N)c(C(F)(F)F)c1 the AC50 was inconclusive: 23.5 µM [cytotoxic].
With O=S(=O)(CC1CS1)c1ccc(Oc2ccccc2)cc1 (stereo not drawn) the AC50 was inconclusive: 18.6 µM [cytotoxic].
With C[C@@H]1O[C@@H](O[C@H]2C[C@@H](O)[C@]3(CO)[C@H]4[C@H](O)C[C@]5(C)[C@@H](C6=CC(=O)OC6)CC[C@]5(O)[C@@H]4CC[C@]3(O)C2)[C@H](O)[C@H](O)[C@H]1O the AC50 was active: 0.0525 µM.

Assay: growth inhibition of DIPG glioma cells, dose response, cell-based, SU-DIPG-XIII, MIPE4.0, CellTiter-Glo, qHTS (AID 1347061);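 further: cells exposed to compound for 48 hours before readout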
Settings: SU-DIPG-XIII viability, CellTiter-Glo ATP luminescence
With COC1=C[C@@H]2[C@@H]3Cc4ccc(OC)c(O)c4[C@]2(CCN3C)CC1=O the AC50 was active: 3.32 µM.
In the case of CCC1(c2ccc(N)cc2)CCC(=O)NC1=O (stereo not drawn), the outcome was “inactive”.
In the case of COc1ccc2c(c[n+](C)c3c4cc5c(cc4ccc23)OCO5)c1OC, the AC50 was active: 26.4 µM.
For C[C@]12CC[C@H]3[C@@H](CCC4=CC(=O)CC[C@@]43C)[C@@H]1CC[C@@H]2OC(=O)CCC1CCCC1, the AC50 was active: 23.5 µM.
With O=c1[nH]c2ccccc2n1C1CCN(Cc2ccc(-c3[nH]c4cc5ncnc5cc4nc3-c3ccccc3)cc2)CC1 the AC50 was inconclusive: 26.4 µM [cytotoxic].
In the case of CC(C)(O)C(=O)Nc1ccc([N+](=O)[O-])c(C(F)(F)F)c1, the AC50 was active: 11.8 µM.
With CC(NC(C)(C)C)C(=O)c1cccc(Cl)c1 (stereo not drawn) the outcome was “inactive”.
In the case of C[C@]12CC[C@H]3[C@@H](CCC4=CC(=O)CC[C@@H]43)[C@@H]1CC[C@@H]2OC(=O)CCc1ccccc1, the outcome was “inactive”.
For CCNC(=O)CC1N=C(c2ccc(Cl)cc2)c2cc(OC)ccc2-n2c(C)nnc21 (stereo not drawn), the AC50 was inconclusive: 7.43 µM [cytotoxic].
In the case of COC[C@H]1OC(=O)c2coc3c2[C@@]1(C)C1=C(C3=O)C2CCC(=O)[C@@]2(C)C[C@H]1OC(C)=O (stereo partly drawn), the AC50 was active: 23.5 µM.
With CCOC(=O)Nc1ccc(NCc2ccc(F)cc2)cc1N the outcome was “inactive”.
For CCNC(=O)C[C@@H]1N=C(c2ccc(Cl)cc2)c2cc(OC)ccc2-n2c(C)nnc21, the AC50 was inconclusive: 0.469 µM [cytotoxic].
For Cn1c(CCCC(=O)O)nc2cc(N(CCCl)CCCl)ccc21, the AC50 was inconclusive: 4.69 µM [cytotoxic].
In the case of O=P1(N(CCCl)CCCl)NCCCO1 (stereo not drawn), the outcome was “inactive”.
For Cc1c(C(=O)Nc2cccc(C(F)(F)F)c2)cc(-c2ccccc2)n1CCCN1CCOCC1, the AC50 was inconclusive: 16.6 µM [cytotoxic].
In the case of Cc1cccc(C)c1NC(=O)CN1CCCC1=O, the outcome was “inactive”.
In the case of Cc1sc2c(c1C)C(c1ccc(Cl)cc1)=N[C@@H](CC(=O)OC(C)(C)C)c1nnc(C)n1-2, the AC50 was active: 18.7 µM.
With O=C(N[C@@H](COc1ccc2[nH]c(=O)[nH]c2c1)c1ccccc1)c1cccn(Cc2ccc(F)c(F)c2)c1=O the outcome was “inactive”.
With CCN(CC)C(=O)c1ccc(C2=CC3(CCNCC3)Oc3cccc(O)c32)cc1 the outcome was “inactive”.
In the case of CN(C)CCN(C)CCc1ccc(Cl)c(Cl)c1, the AC50 was inconclusive: 20.9 µM [cytotoxic].
In the case of C=C[C@H]1CN2CCC1C[C@@H]2[C@@H](O)c1ccnc2ccccc12 (stereo partly drawn), the AC50 was active: 20.9 µM.
In the case of O=c1cccc2n1CC1CNC[C@H]2C1, the AC50 was inconclusive: 20.9 µM [cytotoxic].
With COc1ccc(C(=O)c2c(C)n(CCN3CCOCC3)c3cc(I)ccc23)cc1 the AC50 was inconclusive: 37.2 µM [cytotoxic].
For O=C(O)C(=O)c1cn(Cc2ccccc2)c2ccc(-c3ccc(OC(F)(F)F)cc3)cc12, the outcome was “inactive”.
With COC[C@H]1OC(=O)c2coc3c2[C@@]1(C)C1=C(C3=O)[C@@H]2CC[C@H](O)[C@@]2(C)C[C@H]1OC(C)=O the AC50 was active: 16.6 µM.
In the case of Cn1cc(C2=C(c3cn(C4CCN(Cc5ccccn5)CC4)c4ccccc34)C(=O)NC2=O)c2ccccc21, the AC50 was inconclusive: 14.8 µM [cytotoxic].
For COC1(CS(=O)c2ccccc2)CCN(CCc2c[nH]c3ccc(F)cc23)CC1 (stereo not drawn), the outcome was “inactive”.
In the case of C[C@@H]1CC[C@H]2[C@@H](C)C(=O)O[C@@H]3O[C@@]4(C)CC[C@@H]1[C@]32OO4, the outcome was “inactive”.
For CO/C1=C/C(C)=C\[C@@H](C)[C@@H](O)[C@@H](C)C/C(C)=C\C=C/[C@H](OC)[C@@H]([C@@H](C)[C@@H](O)[C@H](C)[C@@]2(O)C[C@@H](O)[C@H](C)[C@@H](C(C)C)O2)OC1=O, the AC50 was inconclusive: 37.2 µM [cytotoxic].
In the case of CCCCCC[C@H]1C(=O)O[C@H](C)[C@H](NC(=O)c2cccc(NC=O)c2O)C(=O)O[C@@H](C)[C@@H]1OC(=O)CC(C)C, the AC50 was inconclusive: 0.118 µM [cytotoxic].
For CC(C)CC(N(C)C)C1(c2ccc(Cl)cc2)CCC1 (stereo not drawn), the AC50 was active: 23.5 µM.
With CC(C)[C@]12O[C@H]1[C@@H]1O[C@]13[C@]1(O[C@H]1C[C@H]1C4=C(CC[C@@]13C)C(=O)OC4)[C@@H]2O the outcome was “inactive”.
With CC(O)(CS(=O)(=O)c1ccc(F)cc1)C(=O)Nc1ccc(C#N)c(C(F)(F)F)c1 (stereo not drawn) the AC50 was inconclusive: 18.7 µM [cytotoxic].
With CN1[C@@H]2CC(O)C[C@H]1[C@@H]1O[C@@H]12 (stereo partly drawn) the AC50 was inconclusive: 18.7 µM [cytotoxic].
With CO[C@H]1CCC(O[C@H]2C[C@H]([C@]3(C)CC[C@]4(C[C@H](O)[C@@H](C)[C@@H]([C@@H](C)/C=C(\C)C(=O)[C@H](C)C[C@H](C)C(=O)O)O4)O3)O[C@]3(O[C@@H]([C@H]4O[C@@](O)(CO)[C@H](C)C[C@@H]4C)C[C@@H]3C)[C@@H]2C)O[C@@H]1C (stereo partly drawn) the AC50 was active: 3.32 µM.
For C[C@@]12OC(=O)[C@]1([C@@H](O)[C@@H]1C=CCCC1)NC(=O)[C@@H]2CCCl, the AC50 was active: 0.59 µM.
For C[C@](O)(COc1ccc(C#N)cc1)C(=O)Nc1ccc(C#N)c(C(F)(F)F)c1, the AC50 was inconclusive: 23.5 µM [cytotoxic].
In the case of O=S(=O)(CC1CS1)c1ccc(Oc2ccccc2)cc1 (stereo not drawn), the AC50 was inconclusive: 16.6 µM [cytotoxic].
For C[C@@H]1O[C@@H](O[C@H]2C[C@@H](O)[C@]3(CO)[C@H]4[C@H](O)C[C@]5(C)[C@@H](C6=CC(=O)OC6)CC[C@]5(O)[C@@H]4CC[C@]3(O)C2)[C@H](O)[C@H](O)[C@H]1O, the AC50 was active: 0.0132 µM.
